Reference: paper PMC8964805
Results are given in words; binding and its absence hold for the method and conditions named. Binding seen in cells or lysates may run through a third protein. Some results given as binding are weak or reduced against the parent protein; the word gives no strength. For some assays here: Where a sequence is shown, tags or fusion partners need not be part of it.

Amino acid sequences for entries named in this document (tags omitted).
UniProt P46938: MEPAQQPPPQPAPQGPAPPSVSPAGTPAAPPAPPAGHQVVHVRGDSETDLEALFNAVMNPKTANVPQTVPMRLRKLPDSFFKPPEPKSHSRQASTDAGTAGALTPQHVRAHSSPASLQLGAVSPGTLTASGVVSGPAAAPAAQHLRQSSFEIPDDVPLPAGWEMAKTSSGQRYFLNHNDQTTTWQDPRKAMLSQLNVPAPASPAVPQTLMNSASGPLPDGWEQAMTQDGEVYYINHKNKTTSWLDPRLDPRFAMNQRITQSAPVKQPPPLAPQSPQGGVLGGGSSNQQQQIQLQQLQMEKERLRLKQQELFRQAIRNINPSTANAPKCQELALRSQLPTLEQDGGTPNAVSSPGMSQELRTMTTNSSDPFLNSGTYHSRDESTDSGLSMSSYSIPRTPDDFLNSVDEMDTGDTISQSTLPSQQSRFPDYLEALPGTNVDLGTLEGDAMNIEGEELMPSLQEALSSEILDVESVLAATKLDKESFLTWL

Assays:
[1] = target: YAP1 (endogenous, primary mouse hepatocytes) (mouse (endogenous in primary hepatocytes)) (UniProt P46938); assay: co-IP; lysates of primary hepatocytes of wild-type mice isolated at the indicated times after PHx; immunoprecipitated with a YAP1 antibody, Bcl3 detected by western blot; 1 mg total protein with 2 ug antibody or isotype control IgG, 4 °C overnight
[2] = target: His-YAP1 (UniProt P46938); assay: co-IP; HEK293T cells transfected with His-YAP1 and Flag-Bcl3 plasmids for 48 h; lysates immunoprecipitated with the indicated antibodies, western blot with anti-His or anti-Flag

Row | binding [1] | binding [2] | Binder
1 | binds | – | Bcl3 (endogenous, primary mouse hepatocytes) (protein, UniProt Q9Z2F6 1-448) MPRCPAGAMDEGPVDLRTRPKGTPGAALPLRKRPLRPASPEPATTRSPAGPLDALRSGCDVPVVPGPPHCVARPEALYYQGPLMPIYSTPTMAPHFPLLNLPTHPYSMICPMEHPLSADIAMATRVDEDGDTPLHIAVVQNNIAAVYRILSLFKLGSREVDVHNNLRQTPLHLAVITTLPDMVRLLVTAGASPMALDRHGQTAIHLACEHRSPSCLQALLDSATSGSVDLEVRNYEGLTALHVAVNTGCQEAVLLLLERGADIDAVDIKSGRSPLIHAVENNSLNMVQLLLLHGANVNAQMYSGSSALHSASGRGLLPLVRTLVRSGADSGLKNCHNDTPLMVARSRRVIDILRGKASRAASGSQPEPSPDQSATNSPESSSRLSSNGLQSSPSSSPSLSPPKDAPGFPATPQNFFLPTTSTPAFLPFPGVLRGPGRPVPPSPAPGSS
2 | – | binds | Flag-Bcl3 (protein, UniProt Q9Z2F6 1-448) MPRCPAGAMDEGPVDLRTRPKGTPGAALPLRKRPLRPASPEPATTRSPAGPLDALRSGCDVPVVPGPPHCVARPEALYYQGPLMPIYSTPTMAPHFPLLNLPTHPYSMICPMEHPLSADIAMATRVDEDGDTPLHIAVVQNNIAAVYRILSLFKLGSREVDVHNNLRQTPLHLAVITTLPDMVRLLVTAGASPMALDRHGQTAIHLACEHRSPSCLQALLDSATSGSVDLEVRNYEGLTALHVAVNTGCQEAVLLLLERGADIDAVDIKSGRSPLIHAVENNSLNMVQLLLLHGANVNAQMYSGSSALHSASGRGLLPLVRTLVRSGADSGLKNCHNDTPLMVARSRRVIDILRGKASRAASGSQPEPSPDQSATNSPESSSRLSSNGLQSSPSSSPSLSPPKDAPGFPATPQNFFLPTTSTPAFLPFPGVLRGPGRPVPPSPAPGSS
